Here are results for one compound from patent publication US5223411A, “Nonionic surfactants having a carbamoyl group and process for treatment of a proteins containing medium using the same” (Centre National de la Recherche Scientifique (CNRS), priority 1990, dated 1993).

In the data set the test system is Spiroplasma melliferum B88 membrane. Put plainly: Membrane protein extraction with detergents, spiroplasmal membrane. Particulars: 75 mM HECAMEG.

Turning to `CCCCCCCNC(=O)OC[C@H]1O[C@H](OC)[C@H](O)[C@@H](O)[C@@H]1O` [HECAMEG, 6-0 (N-Heptylcarbamoyl) methyl α-D-glucopyranoside], the “ratio protein extracted per detergent” value is reported as 26 ug of protein/μmol of detergent.
